The other results are listed elsewhere or left out.

Chains of the proteins cited; added tags and fusions are not shown.
UniProt Q0JBA9, entry or part of it: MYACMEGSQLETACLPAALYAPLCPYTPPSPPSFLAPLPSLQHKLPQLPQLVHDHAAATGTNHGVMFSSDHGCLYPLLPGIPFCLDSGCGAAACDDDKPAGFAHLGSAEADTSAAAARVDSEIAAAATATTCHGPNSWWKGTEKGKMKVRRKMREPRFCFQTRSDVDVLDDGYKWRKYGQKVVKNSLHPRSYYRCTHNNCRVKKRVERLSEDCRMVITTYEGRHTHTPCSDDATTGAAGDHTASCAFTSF

The target in this assay is OsWRKY34 (Oryza sativa, UniProt Q0JBA9 1-250). Nature of the assay: protein-binding microarray (RPBM); PBS, 2% BSA, 51.3 ng/ul salmon testes DNA, 50 uM zinc acetate, 200 nM TF, 25 C, 1 h; high values mean tight binding. The settings on record: protein: recombinant; tags: N-terminal polyhistidine and DsRed monomer fusion (pET32a); label: CyDye5-dUTP incorporated in the synthesized complementary strand; 3' TTTTT single-stranded linker to array surface; dsDNA, one strand shown. The gist of the method: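 The binding signal is fluorescence intensity per array feature (arbitrary units). Readings came from an Axon 4000B scanner after a washed, 2% BSA-blocked, double-stranded custom Agilent array had been incubated for 1 h at 25 °C with 200 nM protein and 50 µM zinc acetate. The protein was a Ni–NTA-purified transcription factor fused N-terminally to polyhistidine and DsRed, expressed in E. coli BL21-CodonPlus.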
“ATTGGTTGCTGCTCTCTCTTCTTGGCGTTTGTTTCCTATGCGGAGTCACCTAGTGCAG”: the binding signal was 12400 fluorescence intensity (a.u.).

Consider “GGTGGTGTGACATGACATTGTTTTTCAGGTGAGAGCTTGACGGAGTCACCTAGTGCAG”, for which the binding signal is 11700 fluorescence intensity (a.u.).

Turning to “ATGGTTTTTTTTCCCTAGCTAAAAGTTATTTTTGGTTGCTCGGAGTCACCTAGTGCAG”, the binding signal is 8990 fluorescence intensity (a.u.).

Regarding “CTACGCAGCCGTCGCCGTGCCTTCCTCGTCCTCTACCGGCCGGAGTCACCTAGTGCAG”, the binding signal is 8140 fluorescence intensity (a.u.). Under “CTCGTTGGGACTATGGACCTGTTCACTTTATAGCTATTTTCGGAGTCACCTAGTGCAG” stands 8450 fluorescence intensity (a.u.); under “TTTTGGGTTGATATGTTGCTGAATTCTGATTTTTTTATTACGGAGTCACCTAGTGCAG”, 8930 fluorescence intensity (a.u.); under “GTCCACTGCAGTGACCAATGTTCATTTACTAGTTATTGGGCGGAGTCACCTAGTGCAG”, 8850 fluorescence intensity (a.u.).

On to “TCTGTTATTCTACTTGTGCTTCTTCGGTTTTTATAAATTGCGGAGTCACCTAGTGCAG”, for which the binding signal was 8100 fluorescence intensity (a.u.).

In the case of “TAAGAATGAAGTCATCAAAGTTACATCTTATTGACTTTTTCGGAGTCACCTAGTGCAG”, the binding signal is 8680 fluorescence intensity (a.u.). Under “GCTCCTTTAATTTGAACCAACCTTTCCGCTATAAAATCACCGGAGTCACCTAGTGCAG” stands 9520 fluorescence intensity (a.u.).

For the sequence “CCCCACATCCGTTGCGCCTTGCATCTACTCTGTGCCAATCCGGAGTCACCTAGTGCAG”, the binding signal was 13200 fluorescence intensity (a.u.). Under “AGTGACATTTTCCTTGTGTTTTCCCCAGAAATGTGTTTCCCGGAGTCACCTAGTGCAG” stands 8720 fluorescence intensity (a.u.).

“ACAGCCCAGCCTACAGCTTCAAATTACGGAATTTCAGTATCGGAGTCACCTAGTGCAG”: the binding signal is 8910 fluorescence intensity (a.u.).

With “GAACGCCCATTTCCCCAACGCCTCGCGCCACCCGCGCCGACGGAGTCACCTAGTGCAG”, the binding signal is 9440 fluorescence intensity (a.u.).

In the case of “GGCCCCTTACTGACATGTAATAACACTATTCCTTTTGACCCGGAGTCACCTAGTGCAG”, the binding signal was 8660 fluorescence intensity (a.u.). Under “CCGCTTCCACCCACTCCAACCGGCCCATCCAGCCCACGGCCGGAGTCACCTAGTGCAG” stands 9100 fluorescence intensity (a.u.).

As for “TCCATTTGTCTGTTTGTGTTGGCGTTGGGTTAAAAGCTGACGGAGTCACCTAGTGCAG”, the binding signal is 11100 fluorescence intensity (a.u.). Under “CTAGCTAGTTTGTTTTCGTCTCAATCCATCTGTTCGGCAGCGGAGTCACCTAGTGCAG” stands 8170 fluorescence intensity (a.u.). “TATGTCTTTCTCTTTCAATCTCTTCATGTGTGCCATGTTCCGGAGTCACCTAGTGCAG”: the binding signal was 9020 fluorescence intensity (a.u.). Consider “CGATTAGAGATCGGTTCATGTGTTGCATGCTGTATTTCTTCGGAGTCACCTAGTGCAG”, for which the binding signal is 9970 fluorescence intensity (a.u.). Under “CTTTTCCCTTTTCTTTTTAATTAAAACCTACTGTTTTTCCCGGAGTCACCTAGTGCAG” stands 9680 fluorescence intensity (a.u.).

Take “CTCACTGCCACTGCATCTTCTTCTTCAGTTCTTCTTCTTCCGGAGTCACCTAGTGCAG”: the binding signal is 12900 fluorescence intensity (a.u.). For the sequence “ATCTTTGACGTCGTTGACTTTTAAAAAAATGTTTGACCGTCGGAGTCACCTAGTGCAG”, the binding signal was 22300 fluorescence intensity (a.u.). Under “CTGTTTTGTGGTGTTGCACACATTCTACCATTTGAACTGTCGGAGTCACCTAGTGCAG” stands 9380 fluorescence intensity (a.u.); under “TTTCATCCATTTTTCCGCTCTCTCTCTCTCCGAATGCGCGCGGAGTCACCTAGTGCAG”, 9050 fluorescence intensity (a.u.); under “GTAATTCATATCCATTCATCGTACGACCTCTGTAATAATTCGGAGTCACCTAGTGCAG”, 11500 fluorescence intensity (a.u.).

With “GCTCGAATTGCCACGTAAGCGCCACGTCAATGCCACGTCACGGAGTCACCTAGTGCAG”, the binding signal is 8620 fluorescence intensity (a.u.). Take “AATCGATCCCACATTATCATCTTGCGGTACATGTATATTTCGGAGTCACCTAGTGCAG”: the binding signal was 12000 fluorescence intensity (a.u.). For the sequence “ATTACTTGGTTGGTATTTGATGCGTCTAACCTGTTATTAACGGAGTCACCTAGTGCAG”, the binding signal was 8300 fluorescence intensity (a.u.). As for “AAGTTTTCGTGCTTAATTTTAATCGCCGTCTTATTTAAAACGGAGTCACCTAGTGCAG”, the binding signal is 8100 fluorescence intensity (a.u.). Under “AGGGCCTAAATCTCGTGGAATCTCATGCTTCAATATCGCGCGGAGTCACCTAGTGCAG” stands 8460 fluorescence intensity (a.u.); under “TCACCTCACCCTCTCGCGGTTTGAGTTTTCCACTTCCACGCGGAGTCACCTAGTGCAG”, 9650 fluorescence intensity (a.u.). Under “GTTTGATCCATTACAGCTCCACATATATTGTGAAATCATTCGGAGTCACCTAGTGCAG” stands 10500 fluorescence intensity (a.u.); under “TTAATGTTATGTAGGTCAGTAGGTGTGTATTTTTGCGTAACGGAGTCACCTAGTGCAG”, 9160 fluorescence intensity (a.u.). The figure for “CACCACCACCACCAACACTGCAACACAACACACCACCATGCGGAGTCACCTAGTGCAG” is 8330 fluorescence intensity (a.u.).

Take “CCACTTCATTTACCGACTACCGGTCACACTGTCACAGTTCCGGAGTCACCTAGTGCAG”: the binding signal was 9090 fluorescence intensity (a.u.). For the sequence “TATATATATATATATATATATATATATATGTGTGTGTGTGCGGAGTCACCTAGTGCAG”, the binding signal was 13700 fluorescence intensity (a.u.). Take “GCATTCACCTTGCTTGACTGTAATTGAGTCATTGCTGTACCGGAGTCACCTAGTGCAG”: the binding signal is 12600 fluorescence intensity (a.u.). As to “TTTGTGTGTTTAGTTTCTTACGTTTATAATTTTCTGAGTTCGGAGTCACCTAGTGCAG”, the binding signal is 9390 fluorescence intensity (a.u.). The figure for “ACTTTGCACTGAACTAAACACAGCCGTATTTCTACTAGTCCGGAGTCACCTAGTGCAG” is 9350 fluorescence intensity (a.u.). Take “AACGCGCTTACCGGCACTCTTCCATTGGATCTACTCTGCACGGAGTCACCTAGTGCAG”: the binding signal is 9010 fluorescence intensity (a.u.). Under “CTCACAGGTCAACACACCACCAGATTATATAACTCTTCGACGGAGTCACCTAGTGCAG” stands 9300 fluorescence intensity (a.u.).

Values taken from PMC7819943, “Rice protein-binding microarrays: a tool to detect cis-acting elements near promoter regions in rice”.
